From PubChem BioAssay AID540256 (National Center for Advancing Translational Sciences (NCATS), 2011)
Screen size: about 300,000 compounds; about 3,700 (1.2%) were called active. The shares of active, inactive and inconclusive entries below differ from those in the screen. Calls come from the whole dose curve; tested in HEK293 cells. Where the call is inconclusive, the potency comes from a doubtful curve fit.

Assay: qHTS for Inhibitors of binding or entry into cells for Lassa Virus; note: nearly all actives have a fitted effect of over 50% in size
Details: Lassa virus pseudotype entry inhibition, cell reporter; activity change, negative = inhibition: at 37.9 µM (top of the series) unless noted
% is set by controls: 0 for no effect and ±100 for the full control effect; potency is the fitted concentration of half-maximal effect.

| Compound | Potency | activity change, negative = inhibition |
| --- | --- | --- |
| CC1(C)N=C(N)N=C(N)N1c1ccc(Oc2ccc(Cl)cc2)c(Cl)c1 | inconclusive: 14.1 µM [inhibitor, single point] |  |
| COc1ccc(/C=C/C(=O)N[C@@H](C)C(=O)O)cc1 |  | inactive: 2.89% |
| Cc1cccc(OCC(=O)Nc2ccccc2N2CCCC2)c1C | inconclusive: 35.5 µM [inhibitor, single point] |  |
| O=C(CCn1ccc2cc(S(=O)(=O)N3CCCC3)ccc21)NCc1cccc(Br)c1 | inconclusive: 14.1 µM [inhibitor, single point] |  |
| CCOC(=O)C(C)Oc1cccc2c(=O)n(CC(=O)Nc3ccc4c(c3)OCCO4)ccc12 (stereo not given) |  | inactive: -5.76% |
| COCCCNCCCCSc1ccc(Cl)cc1 | inconclusive: 1.12 µM [inhibitor, single point] |  |
| COc1ccc(C(CC(=O)c2ccc(C)cc2)Nc2ccc([N+](=O)[O-])cc2)cc1 (stereo not given) | inconclusive: 3.98 µM [inhibitor, single point] |  |
| CCCC(=O)NC(c1ccc(OC)cc1)c1ccc2cccnc2c1O (stereo not given) | inconclusive: 5.62 µM [inhibitor, full curve] |  |
| O=C(Cn1cc(Cl)ccc1=O)c1ccc(Cl)cc1 |  | inactive: 7.25% [at 46.1 µM] |
| COc1nc(N(C)C)nc(N(OC)S(=O)(=O)c2ccccc2Cl)n1 | inconclusive: 3.16 µM [activator, partial curve, poor fit] |  |
| O=C(C1CC1)N1CCN(c2nc3ccc(F)cc3s2)CC1 |  | inactive: 10.1% [at 46.1 µM] |
| CCCCn1c(O)c(C(CC)=NCc2cc(OC)cc(OC)c2)c(=O)[nH]c1=O | inconclusive: 18.3 µM [inhibitor, partial curve, poor fit] |  |
| CC(=O)c1ccc(NC(=O)CCc2c(C)nc3cc(-c4ccc(Cl)cc4)nn3c2C)cc1 |  | inactive: 6.55% [at 46.1 µM] |
| c1ccc2nc(NN=C3CCCCC3)ccc2c1 | inconclusive: 0.447 µM [activator, partial curve, poor fit] |  |
| CC(C(=O)Nc1ccccc1-c1ccccc1)N1CCN(Cc2ccccc2)CC1 (stereo not given) | inconclusive: 35.5 µM [inhibitor, single point] |  |
| O=C(C1CCCCC1)N1CCC(c2nc3c(nnn3Cc3c(F)cccc3Cl)c(=O)[nH]2)CC1 | inconclusive: 22.4 µM [inhibitor, single point] |  |
| COc1cccc(-n2c(SCc3ccccc3C)nc3c([nH]c4ccccc43)c2=O)c1 |  | inactive: -22.4% [at 46.1 µM] |
| O=C(NCCc1ccccc1)C(=O)NCC1CCCN1S(=O)(=O)c1cccs1 (stereo not given) | inconclusive: 10 µM [inhibitor, partial curve, poor fit] |  |
| CCOc1ccc(C(C)=O)cc1COC(=O)c1cc([N+](=O)[O-])ccc1N1CCOCC1 |  | inactive: -1.05% |
| COc1cccc(Cn2c(=O)n(-c3ccccc3C)c(=O)c3c2c2cc(C)ccc2n3C)c1 | inconclusive: 2.51 µM [inhibitor, full curve, poor fit] |  |
| O=C(NCCSc1c(-c2ccc(F)cc2)[nH]c2ccccc12)c1ccc(S(=O)(=O)N2CCOCC2)cc1 | inconclusive: 35.5 µM [inhibitor, single point] |  |
| COc1cc(C)ccc1Oc1nc(-c2ccccc2O)nc2ccccc12 |  | inactive: 11.7% |
| Cc1c(C(=O)Nc2nonc2-c2ccc(F)cc2)oc2ccc(F)cc12 | inconclusive: 28.2 µM [inhibitor, single point] |  |

| Compound | Potency | activity change, negative = inhibition |
| --- | --- | --- |
| Cc1c(-c2nsc(NC(=O)c3cccs3)n2)nnn1-c1ccc(Br)cc1 | inconclusive: 35.5 µM [inhibitor, single point] |  |
| CC1C(=O)N(Cc2ccc([N+](=O)[O-])cc2)c2ccccc2N1C(=O)c1c(F)cccc1F (stereo not given) | inconclusive: 25.1 µM [inhibitor, single point] |  |
| O=C(N/C(=C\c1ccc([N+](=O)[O-])cc1)C(=O)N1CCOCC1)c1ccco1 |  | inactive: -0.019% [at 46.1 µM] |
| Cc1ccc(/C=C2\SC(=S)N(CCCC(=O)Nc3ccccn3)C2=O)cc1 | active: 2.24 µM |  |
| COc1cccc(-c2csc(NC(C)=O)n2)c1 | inconclusive: 2.82 µM [activator, partial curve, poor fit] |  |
| Cc1cc(/C=N/NC(=O)C(=O)NCc2ccccn2)c(C)n1-c1ccccc1 | inconclusive: 2.82 µM [inhibitor, single point] |  |
| COc1cc(NC(=O)c2ccccc2NS(=O)(=O)c2ccc(Cl)s2)cc(OC)c1 | active: 11.2 µM |  |
| CCC1CN(C(=O)Nc2cc(C)cc(C)c2)c2ccccc2O1 (stereo not given) | inconclusive: 5.01 µM [inhibitor, partial curve] |  |
| CCOC(=O)c1cnc(SCCN2CCOCC2)nc1N |  | inactive: -5.77% |
| COc1cc(N)c(C(O)c2nccc3cc(OC)c(OC)cc23)cc1OC (stereo not given) | inconclusive: 15.8 µM [inhibitor, single point] |  |
| O=C(COc1ccccc1-c1nc(-c2ccccc2)no1)Nc1ccccc1[N+](=O)[O-] |  | inactive: -19.6% [at 46.1 µM] |
| Cc1cc(NC(=O)C(Cl)(Cl)Cl)no1 | inconclusive: 8.91 µM [activator, partial curve, poor fit] |  |
| Cc1ccccc1C(=O)OC1OC(=O)C(Cl)=C1Nc1ccccc1 (stereo not given) | inconclusive: 17.8 µM [inhibitor, single point] |  |
| O=c1[nH]sc2cc(F)ccc12 |  | inactive: -24.9% |
| O=C(Cc1ccc(Cl)cc1)NCCS(=O)c1ccc(Cl)cc1 (stereo not given) |  | inactive: 3.41% |
| Cc1ccc(S(=O)(=O)N2CCC(c3ccncc3)CC2)c(C)c1 | inconclusive: 35.5 µM [inhibitor, partial curve, poor fit] |  |
| CCCCNC(=O)NC12CC3CC(CC(C3)C1)C2 | inconclusive: 7.08 µM [inhibitor, partial curve, poor fit] |  |
| N#Cc1ccc(OCc2ccc(C(=O)O)o2)cc1 | inconclusive: 2.82 µM [activator, full curve, poor fit] |  |
| Cc1onc(-c2c(F)cccc2Cl)c1C(=O)Nc1cc(S(=O)(=O)N2CCCCC2)ccc1O | inconclusive: 20 µM [inhibitor, single point] |  |
| CN(C)c1ccc(/C=N/NC(=O)c2sccc2-n2cccc2)cc1 |  | inactive: 20% |
| Cc1cc(C)nc(SCCC(=O)Nc2ccc(F)cc2)n1 |  | inactive: 6.61% |
| COCCCn1c(SCc2ccccc2)nc2cc(OC)c(OC)cc2c1=N | inconclusive: 29.1 µM [inhibitor, partial curve, poor fit] |  |

Part of the list above, comma-delimited.
Compound,Potency,"activity change, negative = inhibition"
CN(C)c1ccc(/C=N/NC(=O)c2sccc2-n2cccc2)cc1,,inactive: 20%
Cc1cc(C)nc(SCCC(=O)Nc2ccc(F)cc2)n1,,inactive: 6.61%
